# Results are given in words; binding and its absence hold for the method and conditions named. In cells and extracts the contact can be indirect.
# B1: Xenopus laevis ZC3HC1 (zinc finger C3HC-type protein 1), soluble, dephosphorylated, in NE-assembly-competent egg extract (protein, UniProt Q6P7H4 1-477)
# chain: MATTCEEVLVSPVKSTAVTPLKIRELINEGIVCGERSGIGRKEASETPEENTAFEDLPGNNSYESTSKDAFFSRVESFSSLKWAGKPPELCPLICAKYGWCNIECDMLKCSSCNAYLCASLQPILDFSKYKQRCVELQEALRKAHEKFCFWPDSPCPEHFWALLVTEPSSVLSDFVERFHNLCHLEMQLPSLKHEDVKSMDITEDTVSRLLRLIEDELKPKEGREANSHSLPSDSLQVHISACILALCGWNTSFSSGSLCIINCPRCMRKVGLWAFQQLETVELDNSLSAPGTPVSPAEGHERSPLGFMSPSRRVTRSRDAEQSPAFAYGRTRSSDLLSPADSEAVRNRPVTRSMGQGENTGLGNELHSSPHRRAKRPRLCSSSSSDTSPRSCFDPLSQHRSWCPWVNVCQASGTNTMGSEIQEEARRKEYGWKEVLKVLLAEENSRTISNPDTSSVPEKSHKVFRIFRQWQLAASS
# Columns and labels:
# [1] = target: T1, Xenopus laevis ZC3HC1 (zinc finger C3HC-type protein 1), soluble, dephosphorylated, in NE-assembly-competent egg extract (X. laevis (endogenous in egg extract)) (UniProt Q6P7H4); assay: co-IP; native proteins; antibodies covalently bound to Protein A-coupled magnetic Dynabeads; 250,000 x g supernatants of X. laevis egg extracts competent for post-mitotic nuclear assembly, diluted in four volumes IP buffer (41.5 mM KCl, 8.5 mM NaCl, 5 mM MgCl2, 2.5 mM EGTA, 10% sucrose, 20 mM HEPES pH 7.25), 30 min at RT; washes with 0.02% Tween-20; elution with 100 mM glycine pH 2.5; immunoblot
# T1 sequence: B1 chain
# [2] = target: Xenopus laevis NUP62 (X. laevis (endogenous in egg extract)); assay: as above
Molecule,binding [1],binding [2]
Xenopus laevis NUP62 (X. laevis (endogenous in egg extract)),no binding,
B1,,no binding
